Laboratory results reported in the supplement of paper PMC4840960.
Where a name gives a salt, the structure may show the parent alone. ± gives the standard deviation of the averaged measurements. The list shows a part of the results. Baselines shift from plate to plate; read single values as rough. Square brackets hold non-standard residues; d marks the D form. Peptide text beside a SMILES is read from it. pGlu = O=C1CC[C@@H](C(=O)O)N1; Thz = O=C(O)[C@@H]1CSCN1

tested on: E18 rat cortical neuron-glia co-culture; test: total nuclei (DAPI) / Olig2+ nuclei (ratio); higher = more depletion of OPC/OL lineage cells; conditions: 1 µM; treatment time: 8 days (DIV5-DIV13)
Procedure: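 Primary E18 rat cortical co-cultures (neurons, astrocytes, OPC/OLs) in 96-well plates. NIH Clinical Collection compounds were added on DIV5 in myelination medium at 5 and 1 µM for 8 days, then cells were fixed on DIV13 and stained for MBP, Olig2 and DAPI. Myelination (contiguous aligned MBP fiber length per Olig2+ nucleus) was normalised to plate controls (0.1% DMSO = 0, 1 µM DAPT = 100) as % of DAPT. Each value is from duplicate wells with 4 image fields each. Fiber length/MBP is the fiber score divided by the MBP differentiation score; DAPI/Olig2 is the ratio of total to Olig2+ nuclei.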

| Compound | total nuclei |
| --- | --- |
| COC(=O)C[C@](O)(CCCC(C)(C)O)C(=O)O[C@@H]1C(OC)=C[C@]23CCCN2CCc2cc4c(cc2[C@H]13)OCO4 [Homoharringtonine] | > 40 |
| CC(CCc1ccccc1)NCC(O)c1ccc(O)c(C(N)=O)c1 (stereo not given) [Labetalol] | 3.03 |
| O=C1CC2(CCCC2)CC(=O)N1CCNCC1COc2ccccc2O1 (stereo not given) [Binospirone] | 4.1 |
| COc1cc(N)c(Cl)cc1C(=O)NC1CCN(CCCOc2ccc(F)cc2)CC1OC (stereo not given) [Cisapride] | 3.3 |
| CC(C(=O)O)c1ccc(CC2CCCC2=O)cc1 (stereo not given) [loxoprofen] | 2.71 |
| CN(C)CCOC(c1ccc(Cl)cc1)c1ccccn1 (stereo not given) [Carbinoxamine] | 2.85 |
| C[C@]12CC[C@@H]3c4ccc(OS(=O)(=O)O)cc4CC[C@H]3[C@@H]1CCC2=O [Estrone sulfate] | 4 |
| O=C1CC[C@@H](C(=O)N2CSC[C@H]2C(=O)O)N1 [Pidotimod] ([pGlu]-[Thz]-OH) | 3.69 |
| C[C@H]1C[C@H]2[C@@H]3CCC4=CC(=O)C=C[C@]4(C)[C@@]3(F)[C@@H](O)C[C@]2(C)[C@@]1(O)C(=O)CCl [Clobetasol] | 2.8 |
| C[C@](N)(Cc1ccc(O)c(O)c1)C(=O)O [Methyldopa] | 4.13 |
| COC(=O)[C@H](c1ccccc1Cl)N1CCc2sccc2C1 [Clopidogrel] | 3.8 |
| CC12CC3CC(C)(C1)CC(N)(C3)C2 [Memantine] | 3.1 ± 0.18 |
| CC[C@H](C)C(=O)O[C@H]1C[C@@H](C)C=C2C=C[C@H](C)[C@H](CC[C@@H]3C[C@@H](O)CC(=O)O3)[C@H]21 [Lovastatin] | 13.5 |
| CCCN[C@H]1CCc2nc(N)sc2C1 [Pramipexole] | 4.33 ± 2 |
| CCN1CCCC1CNC(=O)c1cc(S(=O)(=O)CC)ccc1OC (stereo not given) [Sultopride] | 4.63 |
| CCc1c2c(nc3ccc(OC(=O)N4CCC(N5CCCCC5)CC4)cc13)-c1cc3c(c(=O)n1C2)COC(=O)[C@]3(O)CC [Irinotecan] | 30.5 |
| OCCN1CCN(CCCN2c3ccccc3Sc3ccc(Cl)cc32)CC1 [Perphenazine] | 4.96 |
| C[C@@H](O)[C@H]1C(=O)N2C(C(=O)O)=C(S[C@@H]3CN[C@H](C(=O)N(C)C)C3)[C@H](C)[C@H]12 [Meropenem] | 3.89 |
| CN(C)[C@@H]1C(O)=C(C(N)=O)C(=O)[C@@]2(O)C(O)=C3C(=O)c4c(O)cccc4[C@@](C)(O)[C@H]3[C@H](O)[C@@H]12 [Oxytetracycline] | 3.55 |
| CCC(=O)O[C@@H]1CC(=O)O[C@H](C)C/C=C/C=C/[C@H](O)[C@H](C)C[C@H](CC=O)[C@H](O[C@@H]2O[C@H](C)[C@@H](O[C@H]3C[C@@](C)(O)[C@@H](OC(=O)CC)[C@H](C)O3)[C@H](N(C)C)[C@H]2O)[C@H]1OC [Midecamycin] | 4.74 |

same assay, conditions: 5 µM; treatment time: 8 days (DIV5-DIV13)

| Compound | total nuclei |
| --- | --- |
| COC(=O)C[C@](O)(CCCC(C)(C)O)C(=O)O[C@@H]1C(OC)=C[C@]23CCCN2CCc2cc4c(cc2[C@H]13)OCO4 [Homoharringtonine] | > 40 |
| CC(CCc1ccccc1)NCC(O)c1ccc(O)c(C(N)=O)c1 (stereo not given) [Labetalol] | 2.8 |
| O=C1CC2(CCCC2)CC(=O)N1CCNCC1COc2ccccc2O1 (stereo not given) [Binospirone] | 4 |
| COc1cc(N)c(Cl)cc1C(=O)NC1CCN(CCCOc2ccc(F)cc2)CC1OC (stereo not given) [Cisapride] | 3.4 |
| CC(C(=O)O)c1ccc(CC2CCCC2=O)cc1 (stereo not given) [loxoprofen] | 2.7 |
| CN(C)CCOC(c1ccc(Cl)cc1)c1ccccn1 (stereo not given) [Carbinoxamine] | 3 |
| C[C@]12CC[C@@H]3c4ccc(OS(=O)(=O)O)cc4CC[C@H]3[C@@H]1CCC2=O [Estrone sulfate] | 4.1 |
| O=C1CC[C@@H](C(=O)N2CSC[C@H]2C(=O)O)N1 [Pidotimod] ([pGlu]-[Thz]-OH) | 3.9 |
| C[C@H]1C[C@H]2[C@@H]3CCC4=CC(=O)C=C[C@]4(C)[C@@]3(F)[C@@H](O)C[C@]2(C)[C@@]1(O)C(=O)CCl [Clobetasol] | 2.9 |
| C[C@](N)(Cc1ccc(O)c(O)c1)C(=O)O [Methyldopa] | 2.8 |
| COC(=O)[C@H](c1ccccc1Cl)N1CCc2sccc2C1 [Clopidogrel] | 3.7 |
| CC12CC3CC(C)(C1)CC(N)(C3)C2 [Memantine] | 2.75 ± 0.071 |
| CC[C@H](C)C(=O)O[C@H]1C[C@@H](C)C=C2C=C[C@H](C)[C@H](CC[C@@H]3C[C@@H](O)CC(=O)O3)[C@H]21 [Lovastatin] | 24.3 |
| CCCN[C@H]1CCc2nc(N)sc2C1 [Pramipexole] | 4.05 ± 1.6 |
| CCN1CCCC1CNC(=O)c1cc(S(=O)(=O)CC)ccc1OC (stereo not given) [Sultopride] | 4.2 |
| CCc1c2c(nc3ccc(OC(=O)N4CCC(N5CCCCC5)CC4)cc13)-c1cc3c(c(=O)n1C2)COC(=O)[C@]3(O)CC [Irinotecan] | > 40 |
| OCCN1CCN(CCCN2c3ccccc3Sc3ccc(Cl)cc32)CC1 [Perphenazine] | > 40 |
| C[C@@H](O)[C@H]1C(=O)N2C(C(=O)O)=C(S[C@@H]3CN[C@H](C(=O)N(C)C)C3)[C@H](C)[C@H]12 [Meropenem] | 4.3 |
| CN(C)[C@@H]1C(O)=C(C(N)=O)C(=O)[C@@]2(O)C(O)=C3C(=O)c4c(O)cccc4[C@@](C)(O)[C@H]3[C@H](O)[C@@H]12 [Oxytetracycline] | 4.3 |
| CCC(=O)O[C@@H]1CC(=O)O[C@H](C)C/C=C/C=C/[C@H](O)[C@H](C)C[C@H](CC=O)[C@H](O[C@@H]2O[C@H](C)[C@@H](O[C@H]3C[C@@](C)(O)[C@@H](OC(=O)CC)[C@H](C)O3)[C@H](N(C)C)[C@H]2O)[C@H]1OC [Midecamycin] | 4.2 |
